No constants are given. Whether binding was seen depends on the method and setting. Binding seen in cells or lysates may run through a third protein. Some results given as binding are weak or reduced against the parent protein; the word gives no strength.
Biological target: desmocollin2 (human) (UniProt Q02487)
Experiment: co-IP; lysates of BC, Lenti-NC and Lenti-DSC2 cells; antibodies on magnetic protein G beads, overnight at 4° C; precipitated by DSC2, γ-catenin detected by western blot

The chains behind the UniProt entries cited, without tags or fusion partners. Residues count along the entry.
UniProt Q02487, residues 136-901: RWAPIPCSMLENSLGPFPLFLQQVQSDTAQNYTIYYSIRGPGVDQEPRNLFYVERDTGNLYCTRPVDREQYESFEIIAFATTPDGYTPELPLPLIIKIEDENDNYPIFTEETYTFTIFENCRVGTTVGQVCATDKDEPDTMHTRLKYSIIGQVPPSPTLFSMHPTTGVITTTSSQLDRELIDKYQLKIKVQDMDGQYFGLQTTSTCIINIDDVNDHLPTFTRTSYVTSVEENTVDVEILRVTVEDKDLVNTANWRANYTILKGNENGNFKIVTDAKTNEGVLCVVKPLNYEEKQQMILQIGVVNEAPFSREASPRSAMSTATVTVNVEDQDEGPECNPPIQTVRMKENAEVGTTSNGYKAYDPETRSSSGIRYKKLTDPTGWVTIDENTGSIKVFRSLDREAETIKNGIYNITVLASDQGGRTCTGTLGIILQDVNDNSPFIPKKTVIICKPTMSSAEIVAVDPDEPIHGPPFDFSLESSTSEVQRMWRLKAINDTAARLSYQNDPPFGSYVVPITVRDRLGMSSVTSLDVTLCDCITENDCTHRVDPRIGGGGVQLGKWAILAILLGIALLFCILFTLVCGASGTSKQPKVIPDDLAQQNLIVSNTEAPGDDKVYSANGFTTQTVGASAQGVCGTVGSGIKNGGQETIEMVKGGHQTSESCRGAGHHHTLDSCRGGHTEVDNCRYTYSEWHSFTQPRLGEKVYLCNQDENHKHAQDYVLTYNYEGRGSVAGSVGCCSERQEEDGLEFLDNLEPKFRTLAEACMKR

binding: binds
B1: γ-catenin (protein, UniProt P14923 1-745)
chain: MEVMNLMEQPIKVTEWQQTYTYDSGIHSGANTCVPSVSSKGIMEEDEACGRQYTLKKTTTYTQGVPPSQGDLEYQMSTTARAKRVREAMCPGVSGEDSSLLLATQVEGQATNLQRLAEPSQLLKSAIVHLINYQDDAELATRALPELTKLLNDEDPVVVTKAAMIVNQLSKKEASRRALMGSPQLVAAVVRTMQNTSDLDTARCTTSILHNLSHHREGLLAIFKSGGIPALVRMLSSPVESVLFYAITTLHNLLLYQEGAKMAVRLADGLQKMVPLLNKNNPKFLAITTDCLQLLAYGNQESKLIILANGGPQALVQIMRNYSYEKLLWTTSRVLKVLSVCPSNKPAIVEAGGMQALGKHLTSNSPRLVQNCLWTLRNLSDVATKQEGLESVLKILVNQLSVDDVNVLTCATGTLSNLTCNNSKNKTLVTQNSGVEALIHAILRAGDKDDITEPAVCALRHLTSRHPEAEMAQNSVRLNYGIPAIVKLLNQPNQWPLVKATIGLIRNLALCPANHAPLQEAAVIPRLVQLLVKAHQDAQRHVAAGTQQPYTDGVRMEEIVEGCTGALHILARDPMNRMEIFRLNTIPLFVQLLYSSVENIQRVAAGVLCELAQDKEAADAIDAEGASAPLMELLHSRNEGTATYAAAVLFRISEDKNPDYRKRVSVELTNSLFKHDPAAWEAAQSMIPINEPYGDDMDATYRPMYSSDVPLDPLEMHMDMDGDYPIDTYSDGLRPPYPTADHMLA

— PMC10373986
